Test results: doi:10.1101/2022.07.05.498918
Where two headings read alike, the source gives them in different places. No constants are given. Whether binding was seen depends on the method and setting. In cells and extracts the contact can be indirect. Some results given as binding are weak or reduced against the parent protein; the word gives no strength. For part of these data: Where a sequence is shown, tags or fusion partners need not be part of it.

The chains behind the UniProt entries cited, without tags or fusion partners.
UniProt P10415: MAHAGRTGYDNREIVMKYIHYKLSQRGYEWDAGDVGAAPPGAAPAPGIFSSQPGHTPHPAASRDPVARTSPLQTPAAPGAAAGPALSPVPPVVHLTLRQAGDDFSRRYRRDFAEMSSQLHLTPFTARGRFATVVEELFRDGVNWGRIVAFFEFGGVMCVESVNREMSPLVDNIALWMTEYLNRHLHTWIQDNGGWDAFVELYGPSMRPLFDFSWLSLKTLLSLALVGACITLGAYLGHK
UniProt Q6ZNE5: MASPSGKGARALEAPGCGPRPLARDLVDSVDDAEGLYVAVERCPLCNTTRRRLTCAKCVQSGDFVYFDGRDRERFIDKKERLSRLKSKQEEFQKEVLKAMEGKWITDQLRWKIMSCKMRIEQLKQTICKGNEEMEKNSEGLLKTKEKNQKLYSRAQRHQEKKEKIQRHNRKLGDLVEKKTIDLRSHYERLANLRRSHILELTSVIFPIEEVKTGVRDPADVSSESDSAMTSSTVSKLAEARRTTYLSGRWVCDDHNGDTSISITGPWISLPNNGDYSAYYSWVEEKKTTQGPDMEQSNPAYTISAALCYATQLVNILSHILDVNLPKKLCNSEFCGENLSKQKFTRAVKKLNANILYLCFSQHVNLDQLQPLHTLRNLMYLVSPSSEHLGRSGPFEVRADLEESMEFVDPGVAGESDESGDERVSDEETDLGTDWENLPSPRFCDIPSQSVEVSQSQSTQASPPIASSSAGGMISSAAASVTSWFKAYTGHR
UniProt Q9C0C7: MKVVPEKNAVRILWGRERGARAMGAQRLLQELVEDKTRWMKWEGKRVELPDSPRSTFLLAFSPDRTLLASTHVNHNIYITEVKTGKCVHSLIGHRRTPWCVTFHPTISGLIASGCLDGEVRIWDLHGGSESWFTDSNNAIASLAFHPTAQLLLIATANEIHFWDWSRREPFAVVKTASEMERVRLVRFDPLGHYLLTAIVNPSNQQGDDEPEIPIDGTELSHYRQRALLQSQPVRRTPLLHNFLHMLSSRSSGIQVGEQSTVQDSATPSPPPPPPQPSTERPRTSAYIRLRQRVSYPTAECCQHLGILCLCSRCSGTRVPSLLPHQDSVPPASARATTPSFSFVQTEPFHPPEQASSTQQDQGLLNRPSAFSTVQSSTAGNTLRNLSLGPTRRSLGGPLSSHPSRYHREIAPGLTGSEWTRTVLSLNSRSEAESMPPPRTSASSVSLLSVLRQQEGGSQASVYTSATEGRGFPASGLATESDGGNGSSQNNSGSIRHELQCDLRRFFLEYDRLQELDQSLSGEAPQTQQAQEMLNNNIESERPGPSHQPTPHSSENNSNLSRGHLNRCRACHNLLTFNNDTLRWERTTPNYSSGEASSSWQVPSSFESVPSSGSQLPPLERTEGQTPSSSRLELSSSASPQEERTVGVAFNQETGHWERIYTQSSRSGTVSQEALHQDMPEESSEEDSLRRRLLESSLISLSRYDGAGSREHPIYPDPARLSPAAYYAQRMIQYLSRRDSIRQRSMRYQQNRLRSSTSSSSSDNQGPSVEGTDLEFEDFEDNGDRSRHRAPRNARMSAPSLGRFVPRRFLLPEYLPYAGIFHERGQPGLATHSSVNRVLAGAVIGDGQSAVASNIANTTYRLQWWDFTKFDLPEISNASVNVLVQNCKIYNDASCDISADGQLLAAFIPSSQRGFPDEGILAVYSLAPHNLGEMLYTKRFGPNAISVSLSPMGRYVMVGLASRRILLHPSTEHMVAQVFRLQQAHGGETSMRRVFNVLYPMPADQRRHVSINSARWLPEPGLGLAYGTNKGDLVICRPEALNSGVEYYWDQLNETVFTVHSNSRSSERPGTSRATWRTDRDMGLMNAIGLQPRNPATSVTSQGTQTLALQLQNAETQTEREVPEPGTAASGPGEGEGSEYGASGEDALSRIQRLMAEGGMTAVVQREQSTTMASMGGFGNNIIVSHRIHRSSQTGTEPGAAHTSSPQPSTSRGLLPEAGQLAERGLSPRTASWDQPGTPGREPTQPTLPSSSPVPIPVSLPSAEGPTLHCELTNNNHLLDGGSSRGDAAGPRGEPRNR
UniProt Q14457: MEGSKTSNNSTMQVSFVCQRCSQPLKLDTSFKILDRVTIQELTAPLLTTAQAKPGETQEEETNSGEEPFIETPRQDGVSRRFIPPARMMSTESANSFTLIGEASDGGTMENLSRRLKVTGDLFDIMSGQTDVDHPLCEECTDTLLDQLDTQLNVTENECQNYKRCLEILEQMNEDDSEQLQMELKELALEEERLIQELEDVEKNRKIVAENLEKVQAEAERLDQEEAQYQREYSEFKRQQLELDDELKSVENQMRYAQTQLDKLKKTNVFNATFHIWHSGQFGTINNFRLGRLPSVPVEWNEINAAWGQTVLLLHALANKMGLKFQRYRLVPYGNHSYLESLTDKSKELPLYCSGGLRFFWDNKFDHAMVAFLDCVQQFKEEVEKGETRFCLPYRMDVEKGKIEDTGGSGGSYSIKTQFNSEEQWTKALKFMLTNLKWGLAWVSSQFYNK
UniProt Q86WV6: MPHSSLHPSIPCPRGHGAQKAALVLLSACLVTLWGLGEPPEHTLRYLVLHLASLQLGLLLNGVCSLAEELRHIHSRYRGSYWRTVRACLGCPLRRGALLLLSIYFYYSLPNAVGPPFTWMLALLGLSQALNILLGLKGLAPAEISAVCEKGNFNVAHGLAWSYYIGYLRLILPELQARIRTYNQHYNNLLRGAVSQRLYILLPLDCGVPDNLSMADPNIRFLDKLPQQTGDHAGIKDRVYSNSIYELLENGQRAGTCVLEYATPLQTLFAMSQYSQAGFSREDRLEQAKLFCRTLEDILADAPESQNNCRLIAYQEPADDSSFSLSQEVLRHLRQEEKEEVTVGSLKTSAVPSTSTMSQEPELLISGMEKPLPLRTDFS
UniProt Q8N884: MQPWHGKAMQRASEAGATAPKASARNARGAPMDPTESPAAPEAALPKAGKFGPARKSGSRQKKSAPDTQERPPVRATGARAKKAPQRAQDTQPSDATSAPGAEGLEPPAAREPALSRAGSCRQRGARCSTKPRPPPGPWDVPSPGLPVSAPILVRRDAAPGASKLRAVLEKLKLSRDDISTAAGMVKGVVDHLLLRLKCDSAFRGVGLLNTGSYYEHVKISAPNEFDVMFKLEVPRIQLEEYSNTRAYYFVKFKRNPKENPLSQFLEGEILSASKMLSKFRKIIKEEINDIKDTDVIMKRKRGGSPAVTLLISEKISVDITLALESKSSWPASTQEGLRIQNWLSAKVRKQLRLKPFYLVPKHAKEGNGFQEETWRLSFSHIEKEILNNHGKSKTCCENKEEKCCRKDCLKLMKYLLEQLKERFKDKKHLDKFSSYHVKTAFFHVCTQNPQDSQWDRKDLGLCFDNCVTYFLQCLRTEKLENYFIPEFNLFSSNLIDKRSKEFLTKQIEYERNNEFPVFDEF

Legend:
Test in all cases: co-IP
[1] = biological target: Flag-Bcl2 (UniProt P10415)
[2] = biological target: Flag-ATG14L (UniProt Q6ZNE5)
[3] = biological target: Flag-Ambra1 (UniProt Q9C0C7)
[4] = biological target: Flag-Bcl2 (UniProt P10415); remark: listed apart in the source
[5] = biological target: Flag-Beclin-1 (UniProt Q14457)
[6] = biological target: Flag-STING (UniProt Q86WV6)

binding [1] | binding [2] | binding [3] | binding [4] | binding [5] | binding [6] | Molecule
binds | binds | binds | binds | binds |  | HA-STING (from UniProt Q86WV6 1-379)
binds |  |  | binds |  |  | Myc-cGAS (from UniProt Q8N884 1-522)
 |  |  |  |  | binds | HA-ATG9a (protein, UniProt Q7Z3C6 1-839) MAQFDTEYQRLEASYSDSPPGEEDLLVHVAEGSKSPWHHIENLDLFFSRVYNLHQKNGFTCMLIGEIFELMQFLFVVAFTTFLVSCVDYDILFANKMVNHSLHPTEPVKVTLPDAFLPAQVCSARIQENGSLITILVIAGVFWIHRLIKFIYNICCYWEIHSFYLHALRIPMSALPYCTWQEVQARIVQTQKEHQICIHKRELTELDIYHRILRFQNYMVALVNKSLLPLRFRLPGLGEAVFFTRGLKYNFELILFWGPGSLFLNEWSLKAEYKRGGQRLELAQRLSNRILWIGIANFLLCPLILIWQILYAFFSYAEVLKREPGALGARCWSLYGRCYLRHFNELEHELQSRLNRGYKPASKYMNCFLSPLLTLLAKNGAFFAGSILAVLIALTIYDEDVLAVEHVLTTVTLLGVTVTVCRSFIPDQHMVFCPEQLLRVILAHIHYMPDHWQGNAHRSQTRDEFAQLFQYKAVFILEELLSPIVTPLILIFCLRPRALEIIDFFRNFTVEVVGVGDTCSFAQMDVRQHGHPQWLSAGQTEASVYQQAEDGKTELSLMHFAITNPGWQPPRESTAFLGFLKEQVQRDGAAASLAQGGLLPENALFTSIQSLQSESEPLSLIANVVAGSSCRGPPLPRDLQGSRHRAEVASALRSFSPLQPGQAPTGRAHSTMTGSGVDARTASSGSSVWEGQLQSLVLSEYASTEMSLHALYMHQLHKQQAQAEPERHVWHRRESDESGESAPDEGGEGARAPQSIPRSASYPCAAPRPGAPETTALHGGFQRRYGGITDPGTVPRVPSHFSRLPLGGWAEDGQSASRHPEPVPEEGSEDELPPQVHKV
 |  |  |  |  | binds | HA-USP19 (enzyme, UniProt O94966 1-1318) MSGGASATGPRRGPPGLEDTTSKKKQKDRANQESKDGDPRKETGSRYVAQAGLEPLASGDPSASASHAAGITGSRHRTRLFFPSSSGSASTPQEEQTKEGACEDPHDLLATPTPELLLDWRQSAEEVIVKLRVGVGPLQLEDVDAAFTDTDCVVRFAGGQQWGGVFYAEIKSSCAKVQTRKGSLLHLTLPKKVPMLTWPSLLVEADEQLCIPPLNSQTCLLGSEENLAPLAGEKAVPPGNDPVSPAMVRSRNPGKDDCAKEEMAVAADAATLVDEPESMVNLAFVKNDSYEKGPDSVVVHVYVKEICRDTSRVLFREQDFTLIFQTRDGNFLRLHPGCGPHTTFRWQVKLRNLIEPEQCTFCFTASRIDICLRKRQSQRWGGLEAPAARVGGAKVAVPTGPTPLDSTPPGGAPHPLTGQEEARAVEKDKSKARSEDTGLDSVATRTPMEHVTPKPETHLASPKPTCMVPPMPHSPVSGDSVEEEEEEEKKVCLPGFTGLVNLGNTCFMNSVIQSLSNTRELRDFFHDRSFEAEINYNNPLGTGGRLAIGFAVLLRALWKGTHHAFQPSKLKAIVASKASQFTGYAQHDAQEFMAFLLDGLHEDLNRIQNKPYTETVDSDGRPDEVVAEEAWQRHKMRNDSFIVDLFQGQYKSKLVCPVCAKVSITFDPFLYLPVPLPQKQKVLPVFYFAREPHSKPIKFLVSVSKENSTASEVLDSLSQSVHVKPENLRLAEVIKNRFHRVFLPSHSLDTVSPSDTLLCFELLSSELAKERVVVLEVQQRPQVPSVPISKCAACQRKQQSEDEKLKRCTRCYRVGYCNQLCQKTHWPDHKGLCRPENIGYPFLVSVPASRLTYARLAQLLEGYARYSVSVFQPPFQPGRMALESQSPGCTTLLSTGSLEAGDSERDPIQPPELQLVTPMAEGDTGLPRVWAAPDRGPVPSTSGISSEMLASGPIEVGSLPAGERVSRPEAAVPGYQHPSEAMNAHTPQFFIYKIDSSNREQRLEDKGDTPLELGDDCSLALVWRNNERLQEFVLVASKELECAEDPGSAGEAARAGHFTLDQCLNLFTRPEVLAPEEAWYCPQCKQHREASKQLLLWRLPNVLIVQLKRFSFRSFIWRDKINDLVEFPVRNLDLSKFCIGQKEEQLPSYDLYAVINHYGGMIGGHYTACARLPNDRSSQRSDVGWRLFDDSTVTTVDESQVVTRYAYVLFYRRRNSPVERPPRAGHSEHHPDLGPAAEAAASQASRIWQELEAEEEPVPEGSGPLGPWGPQDWVGPLPRGPTTPDEGCLRYFVLGTVAALVALVLNVFYPLVSQSRWR
